According to article PMC4223510:

Target: TAP-tagged HIV-1 NL4-3 Pol (TAP-Pol) (HIV-1 strain NL4-3)
Assay: affinity purification with mass spectrometry; tandem affinity purification of TAP-Pol from lysate of stably transfected 293T cells (IgG beads, TEV release, calmodulin beads, EGTA elution); bands of a 10% SDS-PAGE gel identified by LC/MS; a cell line with the TAP tag only as control

B1: A-kinase anchoring protein 95-like protein (HAP95), endogenous (protein, UniProt Q9ULX6 1-646)
chain: MSYTGFVQGSETTLQSTYSDTSAQPTCDYGYGTWNSGTNRGYEGYGYGYGYGQDNTTNYGYGMATSHSWEMPSSDTNANTSASGSASADSVLSRINQRLDMVPHLETDMMQGGVYGSGGERYDSYESCDSRAVLSERDLYRSGYDYSELDPEMEMAYEGQYDAYRDQFRMRGNDTFGPRAQGWARDARSGRPMASGYGRMWEDPMGARGQCMSGASRLPSLFSQNIIPEYGMFQGMRGGGAFPGGSRFGFGFGNGMKQMRRTWKTWTTADFRTKKKKRKQGGSPDEPDSKATRTDCSDNSDSDNDEGTEGEATEGLEGTEAVEKGSRVDGEDEEGKEDGREEGKEDPEKGALTTQDENGQTKRKLQAGKKSQDKQKKRQRDRMVERIQFVCSLCKYRTFYEDEMASHLDSKFHKEHFKYVGTKLPKQTADFLQEYVTNKTKKTEELRKTVEDLDGLIQQIYRDQDLTQEIAMEHFVKKVEAAHCAACDLFIPMQFGIIQKHLKTMDHNRNRRLMMEQSKKSSLMVARSILNNKLISKKLERYLKGENPFTDSPEEEKEQEEAEGGALDEGAQGEAAGISEGAEGVPAQPPVPPEPAPGAVSPPPPPPPEEEEEGAVPLLGGALQRQIRGIPGLDVEDDEEGGGGAP
With B1 the binding was “binds”.

These are yes or no findings as the source states them, for the method shown. In cells and extracts the contact can be indirect. A yes stands for co-enrichment or nearness to the bait. Other partners may have been found.
